Reference: PMC5338925
No constants are given. Whether binding was seen depends on the method and setting. For some assays here: Binding seen in cells or lysates may run through a third protein. Some binding calls cover weakened binding; strength is not graded here.

Amino acid sequences for entries named in this document (tags omitted). A change or cut given only in a name is not applied to a line headed by its entry. Chains listed by the source or under a name are the forms on record and can include a tag or linker. Residues count along the entry.
Nup98 (endogenous) (human (endogenous in HEK293T and HeLa)) (P52948, residues 1-880): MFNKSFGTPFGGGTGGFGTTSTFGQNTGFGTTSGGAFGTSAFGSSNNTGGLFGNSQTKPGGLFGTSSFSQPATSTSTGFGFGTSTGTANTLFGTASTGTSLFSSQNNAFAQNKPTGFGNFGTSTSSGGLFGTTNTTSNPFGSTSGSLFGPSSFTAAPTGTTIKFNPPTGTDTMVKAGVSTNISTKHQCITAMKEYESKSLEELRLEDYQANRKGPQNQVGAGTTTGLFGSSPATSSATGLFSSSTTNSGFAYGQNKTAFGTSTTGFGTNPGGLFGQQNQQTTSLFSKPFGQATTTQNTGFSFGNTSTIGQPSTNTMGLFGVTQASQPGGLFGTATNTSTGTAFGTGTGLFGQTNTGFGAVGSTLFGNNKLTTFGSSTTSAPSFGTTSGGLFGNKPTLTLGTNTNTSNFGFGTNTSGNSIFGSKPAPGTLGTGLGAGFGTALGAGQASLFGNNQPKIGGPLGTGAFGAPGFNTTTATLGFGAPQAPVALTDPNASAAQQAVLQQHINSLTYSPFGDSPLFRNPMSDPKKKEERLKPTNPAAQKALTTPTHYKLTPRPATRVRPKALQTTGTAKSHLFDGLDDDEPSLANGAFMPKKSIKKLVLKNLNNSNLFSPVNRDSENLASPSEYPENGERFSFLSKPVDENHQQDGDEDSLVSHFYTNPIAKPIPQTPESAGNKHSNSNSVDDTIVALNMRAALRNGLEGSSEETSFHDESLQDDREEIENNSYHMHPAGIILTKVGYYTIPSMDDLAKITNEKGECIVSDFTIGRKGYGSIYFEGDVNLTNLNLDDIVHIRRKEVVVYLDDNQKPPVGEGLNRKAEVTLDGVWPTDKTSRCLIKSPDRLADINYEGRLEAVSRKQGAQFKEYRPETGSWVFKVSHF
GST-Nup98^1–863 (P52948, form named): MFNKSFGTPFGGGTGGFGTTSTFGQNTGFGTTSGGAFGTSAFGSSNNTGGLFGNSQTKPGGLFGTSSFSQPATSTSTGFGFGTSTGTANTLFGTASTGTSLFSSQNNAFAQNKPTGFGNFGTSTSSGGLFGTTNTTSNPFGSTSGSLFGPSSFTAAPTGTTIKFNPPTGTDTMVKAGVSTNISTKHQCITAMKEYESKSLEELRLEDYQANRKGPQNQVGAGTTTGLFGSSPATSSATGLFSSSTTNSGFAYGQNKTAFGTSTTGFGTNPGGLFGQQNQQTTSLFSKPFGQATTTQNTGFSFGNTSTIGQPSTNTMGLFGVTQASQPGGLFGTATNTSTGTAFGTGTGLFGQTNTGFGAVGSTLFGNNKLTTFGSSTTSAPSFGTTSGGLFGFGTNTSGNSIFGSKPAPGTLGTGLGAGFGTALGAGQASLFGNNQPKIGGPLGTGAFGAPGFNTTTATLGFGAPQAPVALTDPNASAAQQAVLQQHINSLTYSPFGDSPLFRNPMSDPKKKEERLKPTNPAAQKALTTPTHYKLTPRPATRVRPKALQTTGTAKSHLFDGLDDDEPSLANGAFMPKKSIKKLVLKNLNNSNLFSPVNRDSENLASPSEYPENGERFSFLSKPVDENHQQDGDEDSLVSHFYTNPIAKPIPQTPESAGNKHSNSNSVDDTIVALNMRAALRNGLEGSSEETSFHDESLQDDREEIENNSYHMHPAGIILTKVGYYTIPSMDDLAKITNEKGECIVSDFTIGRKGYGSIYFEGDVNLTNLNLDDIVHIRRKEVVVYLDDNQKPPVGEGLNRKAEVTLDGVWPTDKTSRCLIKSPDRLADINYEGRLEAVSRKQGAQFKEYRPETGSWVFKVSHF
UniProt Q00839: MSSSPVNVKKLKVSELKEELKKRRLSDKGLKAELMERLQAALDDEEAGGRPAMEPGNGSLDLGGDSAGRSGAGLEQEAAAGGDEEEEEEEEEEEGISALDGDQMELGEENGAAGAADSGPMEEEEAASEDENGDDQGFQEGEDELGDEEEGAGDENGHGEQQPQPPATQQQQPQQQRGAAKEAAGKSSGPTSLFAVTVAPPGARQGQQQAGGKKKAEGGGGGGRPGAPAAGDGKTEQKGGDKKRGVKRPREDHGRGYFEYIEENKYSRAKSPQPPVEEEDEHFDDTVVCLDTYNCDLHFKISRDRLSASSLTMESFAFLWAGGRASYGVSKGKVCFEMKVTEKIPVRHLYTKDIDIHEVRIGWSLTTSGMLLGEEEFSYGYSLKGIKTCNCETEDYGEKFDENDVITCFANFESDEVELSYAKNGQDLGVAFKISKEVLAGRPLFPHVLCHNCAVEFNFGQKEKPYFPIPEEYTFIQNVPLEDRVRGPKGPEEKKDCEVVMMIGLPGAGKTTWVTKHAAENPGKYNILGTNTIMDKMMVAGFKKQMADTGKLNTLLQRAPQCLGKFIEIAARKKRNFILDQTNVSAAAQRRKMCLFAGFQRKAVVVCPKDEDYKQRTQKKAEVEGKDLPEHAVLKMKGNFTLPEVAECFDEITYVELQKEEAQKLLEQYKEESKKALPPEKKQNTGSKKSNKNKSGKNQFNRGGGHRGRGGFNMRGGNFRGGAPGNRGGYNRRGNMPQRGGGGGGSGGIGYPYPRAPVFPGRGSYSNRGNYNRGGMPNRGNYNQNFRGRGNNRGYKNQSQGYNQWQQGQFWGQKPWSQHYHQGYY
UniProt Q08211: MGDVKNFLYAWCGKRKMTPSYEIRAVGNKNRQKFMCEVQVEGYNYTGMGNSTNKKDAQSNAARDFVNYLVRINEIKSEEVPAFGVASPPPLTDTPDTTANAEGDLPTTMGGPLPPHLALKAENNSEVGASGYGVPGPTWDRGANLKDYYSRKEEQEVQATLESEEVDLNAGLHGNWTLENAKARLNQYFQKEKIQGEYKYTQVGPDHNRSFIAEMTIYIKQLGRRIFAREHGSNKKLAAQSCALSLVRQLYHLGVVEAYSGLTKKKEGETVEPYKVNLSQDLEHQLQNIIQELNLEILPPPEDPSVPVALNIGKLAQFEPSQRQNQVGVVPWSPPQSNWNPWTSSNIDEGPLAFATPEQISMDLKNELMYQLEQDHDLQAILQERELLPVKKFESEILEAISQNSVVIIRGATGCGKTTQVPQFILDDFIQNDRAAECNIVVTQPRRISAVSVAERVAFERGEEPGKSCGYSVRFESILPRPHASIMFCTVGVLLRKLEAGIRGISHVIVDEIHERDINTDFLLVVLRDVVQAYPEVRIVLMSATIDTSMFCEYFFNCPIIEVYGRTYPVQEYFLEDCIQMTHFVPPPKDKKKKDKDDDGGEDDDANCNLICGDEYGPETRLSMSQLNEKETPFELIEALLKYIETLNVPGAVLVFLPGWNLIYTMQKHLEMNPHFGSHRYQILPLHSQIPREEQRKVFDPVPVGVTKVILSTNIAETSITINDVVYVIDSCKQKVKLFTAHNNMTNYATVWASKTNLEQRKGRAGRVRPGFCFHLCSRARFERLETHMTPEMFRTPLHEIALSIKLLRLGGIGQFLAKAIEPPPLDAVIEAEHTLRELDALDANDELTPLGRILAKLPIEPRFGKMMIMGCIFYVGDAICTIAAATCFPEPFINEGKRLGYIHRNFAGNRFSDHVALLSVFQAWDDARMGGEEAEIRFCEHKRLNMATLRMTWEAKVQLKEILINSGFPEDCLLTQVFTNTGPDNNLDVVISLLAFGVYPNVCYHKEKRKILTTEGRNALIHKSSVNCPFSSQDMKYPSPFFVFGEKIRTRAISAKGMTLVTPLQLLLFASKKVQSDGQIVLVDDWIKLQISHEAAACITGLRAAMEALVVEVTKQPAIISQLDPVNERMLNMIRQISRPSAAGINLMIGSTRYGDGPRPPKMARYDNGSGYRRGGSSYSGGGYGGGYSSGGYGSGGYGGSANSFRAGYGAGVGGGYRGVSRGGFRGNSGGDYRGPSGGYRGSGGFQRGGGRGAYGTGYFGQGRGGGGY

Legend:
GST-Nup98^1–863 (human) = GST-Nup98^1–863 (human) (UniProt P52948); experiment: bead halo assay; GST-Nup98 1-863 held on glutathione magnetic agarose beads (bait); DHX9 domains with C-terminal eGFP (prey) detected by fluorescence microscopy; PBS-T, 10 min, 4 °C; pre-treated with RNase A, poly I:C RNA or buffer alone; both purified
[1] = biological target: hnRNP U (endogenous) (human (endogenous in HEK293T)) (UniProt Q00839); experiment: co-IP; endogenous Nup98, DHX9 and hnRNP U immunoprecipitated with specific antibodies from whole cell lysates (NP-40 cell lysis buffer, 250 mM NaCl); anti-GFP as control; western blot
[2] = biological target: DHX9 (endogenous) (human (endogenous in HEK293T and HeLa)) (UniProt Q08211); experiment: as above
[3] = biological target: DHX9 (endogenous) (human (endogenous in HEK293T and HeLa)) (UniProt Q08211); experiment: co-IP; Nup98 or DHX9 immunoprecipitated from the nucleoplasmic fraction of HeLa cell nuclei; 125 mM NaCl, 0.5% NP-40 washes; western blot
[4] = biological target: Nup98 (endogenous) (human (endogenous in HEK293T and HeLa)) (UniProt P52948); experiment: co-IP; Nup98 affinity purified from HEK293T lysate (with RNase inhibitor); bead-bound complexes incubated with or without RNase A at 37 °C for 30 min; western blot

## DHX9 381–820 tagged with eGFP (from UniProt Q08211 381-820) (domain or fragment)
GST-Nup98^1–863 (human)
  binding: no binding

## Nup98 (endogenous) (from UniProt P52948 1-880)
[1]
  binding: binds
[2]
  binding: binds
[3]
  binding: binds

## PRKDC (from UniProt P78527 1-4128)
[4]
  binding: binds
